# Assay results: PubChem BioAssay AID485349 (National Center for Advancing Translational Sciences (NCATS), 2010)
# Hit rate of the full screen: of about 320,000 compounds, about 620 (0.19%) were called active. The inconclusive results got no clear call from the source; some entries with a clear call stand among them for comparison. Calls follow the shape of the dose curve; as a rule, active = well fitted activation curve with a large enough effect; inconclusive = small, poorly fitted or top-dose-only effect; inactive = no such curve, though single readings can be large or run the other way. Where the call is inconclusive, the potency comes from a doubtful curve fit.
# Experiment: qHTS Assay for Identifying a Potential Treatment of Ataxia-Telangiectasia; also: nearly all actives have a fitted effect of over 45% in size
# Settings: […] A-T fibroblasts, KAP-1 phosphorylation AlphaLISA, neocarzinostatin DNA damage 30 min before lysis; series mostly up to 57.5 µM
# Summary of the method: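 hTERT-immortalized A-T patient fibroblasts ([…]), 500 cells/well in OPTI-MEM, 1% FBS, got compounds for 60 min, then NCS for 30 min at 37C. Lysates were then assayed for phospho-KAP-1 by AlphaLISA (anti-pKAP1 donor, anti-KAP1 acceptor beads), 6 hr at 25C.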
# Potency is read from the fitted curve at half-maximal effect.
row,Compound,Potency
1,Cc1nc2sccn2c1-c1nc(-c2cc3ccccc3o2)cs1,"inconclusive: 28.2 µM [activator, partial curve]"
2,COCCNC(=O)C1CCN(S(=O)(=O)c2c(C)noc2/C=C/c2cccs2)CC1,"inconclusive: 7.08 µM [activator, single point]"
3,CCOC(=O)C1=C(C)NC2(O)c3ccccc3C(=O)C12O (stereo unspecified),"inconclusive: 6.31 µM [activator, single point]"
4,COc1cc(OC)cc(C(=O)Nc2cccc(NC(=O)c3ccccc3)c2)c1,inactive
5,COc1ccc(N2C(=O)C3C(C2=O)C(C(=O)c2ccc(Cl)cc2)N2CCCC32)cc1 (stereo unspecified),"inconclusive: 39.8 µM [activator, single point]"
6,CCN(CC(=O)NC(C)(C)C)C(=O)COc1c(Cl)cc(Cl)c2ccc(C)nc12,"inconclusive: 25.1 µM [activator, partial curve]"
7,CCOCCCN(C(=O)Cn1nnc(-c2ccc(C)o2)n1)C(C(=O)NCC1CCCO1)c1ccc(F)cc1 (stereo unspecified),"inconclusive: 39.8 µM [activator, single point]"
8,CCCNc1nc2c(c(=O)[nH]c(=O)n2C)n1CCC(C)C,"inconclusive: 39.8 µM [activator, single point]"
9,CNC(=O)c1[nH]nc2c1CCc1cc(OC)ccc1-2,active: 10 µM
10,O=c1[nH]nc(-c2ccccc2)c2ccccc12,"inconclusive: 2.82 µM [activator, partial curve]"
11,CSc1nc2ccccc2nc1N(C)S(=O)(=O)c1ccc(C)cc1,active: 1.12 µM
12,NC(=O)C1CCN(CC(=O)Nc2ccc3c(c2)OCCO3)CC1,"inconclusive: 25.1 µM [activator, single point]"
13,Cc1ccccc1N1CCN(C(=O)c2cc(C3CC3)nn2-c2ccccc2)CC1,inactive
14,O=C(O)c1nccnc1C(=O)Nc1ccccc1-c1ccccc1,"inconclusive: 10 µM [activator, full curve, poor fit]"
15,Cc1ccc(NC(=O)CCc2nnc3ccc(NCc4ccco4)nn23)cc1,inactive
16,Cc1cccc2cc3c(nc12)-c1ccccc1C3=O,"inconclusive: 39.8 µM [activator, single point]"
17,Cc1nc(-c2ccc(Cl)cc2)sc1C1(C)CC(c2c(Cl)cccc2Cl)=NO1 (stereo unspecified),"inconclusive: 20 µM [activator, partial curve]"
18,CC(=O)c1ccc(NC(=O)CSc2cn[nH]n2)cc1,inactive
19,CCCC[n+]1c2ccccc2cc2ccccc21,"inconclusive: 10 µM [activator, partial curve]"
20,O=C1C(=O)c2ccc(-c3ccccc3)cc2-c2ccccc21,"inconclusive: 4.47 µM [activator, full curve, poor fit]"
21,CCN(CC)c1ccc(/C=N/NC(=O)Nc2nonc2N)cc1,"inconclusive: 3.16 µM [activator, partial curve]"
22,CN(C/C=C/c1ccccc1)Cc1cccc2ccccc12,active: 39.8 µM
23,C=CCNC(=O)/C(C#N)=C/c1ccc(OS(=O)(=O)c2ccc(C)cc2)c(OC)c1,"inconclusive: 39.8 µM [activator, single point]"
24,Cn1nc(C(=O)N2CCOCC2)c2ccccc2c1=O,"inconclusive: 15.8 µM [activator, partial curve]"

# Random excerpt: four records from the list
row,Compound,Potency
5,COc1ccc(N2C(=O)C3C(C2=O)C(C(=O)c2ccc(Cl)cc2)N2CCCC32)cc1 (stereo unspecified),"inconclusive: 39.8 µM [activator, single point]"
11,CSc1nc2ccccc2nc1N(C)S(=O)(=O)c1ccc(C)cc1,active: 1.12 µM
9,CNC(=O)c1[nH]nc2c1CCc1cc(OC)ccc1-2,active: 10 µM
4,COc1cc(OC)cc(C(=O)Nc2cccc(NC(=O)c3ccccc3)c2)c1,inactive

# An excerpt of these results, with bars between the fields.
row | Compound | Potency
23 | C=CCNC(=O)/C(C#N)=C/c1ccc(OS(=O)(=O)c2ccc(C)cc2)c(OC)c1 | inconclusive: 39.8 µM [activator, single point]
24 | Cn1nc(C(=O)N2CCOCC2)c2ccccc2c1=O | inconclusive: 15.8 µM [activator, partial curve]

# Following part:

row,Compound,Potency
1,Cn1c(SCC(=O)c2ccc3c(c2)NC(=O)CO3)nc2ccccc21,inactive
2,COc1cc(-c2cc(C(=O)Nc3cccc(C(C)=O)c3)c3ccccc3n2)cc(OC)c1OC,"inconclusive: 28.2 µM [activator, partial curve]"
3,CCOC(=O)c1ccc(-n2c(C)nc3ccc(Br)cc3c2=O)cc1,"inconclusive: 3.16 µM [activator, full curve]"
4,C=C1C[C@@]23CCC4[C@@](C)(CCC[C@@]4(C)C(=O)OC)C2CC[C@]1(OC(C)=O)C3 (stereo partly specified),"inconclusive: 39.8 µM [activator, single point]"
5,O=C(CCc1ccccc1)NCCCN1CCOCC1,inactive
6,c1ccc2c(c1)OCCc1c-2[nH]c2ccccc12,inactive
7,CC(=O)O[C@H]1CC[C@H]2[C@@H]3CCc4cc(O)ccc4[C@H]3CC[C@]12C,"inconclusive: 39.8 µM [activator, single point]"
8,CNC(=S)NNC(=O)c1ccc(=O)n(Cc2ccc(Cl)cc2Cl)c1,inactive
9,CCSc1nnc(NC(=O)c2ccc3ccccc3n2)s1,"inconclusive: 39.8 µM [activator, single point]"
10,Cc1ccc(S(=O)(=O)Oc2ccc(C3C4=C(CCCC4=O)N(CCC(=O)O)C4=C3C(=O)CCC4)cc2Cl)cc1,"inconclusive: 28.2 µM [activator, partial curve]"
11,COc1cccc(NC(=O)COc2coc(CN3CCN(c4ccccc4)CC3)cc2=O)c1,"inconclusive: 2.24 µM [activator, partial curve]"
12,N=c1ccn(Cc2ccc([N+](=O)[O-])cc2)cc1,"inconclusive: 3.55 µM [activator, partial curve, poor fit]"
13,O=C1c2ccccc2C(=O)N1CCCCN(C(=O)c1cc([N+](=O)[O-])cc([N+](=O)[O-])c1)c1ccc(Cl)cc1,inactive
14,O=C(/C=C/c1c(F)cccc1Cl)c1ccc(F)cc1,"inconclusive: 39.8 µM [activator, single point]"
15,COc1cccc(/C=N/n2cnc3c(cnn3-c3ccccc3)c2=O)c1,active: 39.8 µM
16,O=C(Nc1ccc(F)cc1)C1CCCN1S(=O)(=O)c1ccc(Br)cc1 (stereo unspecified),"inconclusive: 39.8 µM [activator, single point]"
17,N#CCCCc1cc2ccccc2cn1,"inconclusive: 39.8 µM [activator, single point]"
18,Cc1ncc([N+](=O)[O-])n1CC(C)O (stereo unspecified),"inconclusive: 7.08 µM [activator, partial curve]"
19,Fc1ccc(/C=C2\CCCC3=C2Nc2ncnn2C3c2ccc(F)cc2)cc1 (stereo unspecified),"inconclusive: 25.1 µM [activator, partial curve]"
20,CCN(CC)c1ccc2cc(S(=O)(=O)c3ccc(Cl)cc3)c(=O)oc2c1,active: 25.1 µM
21,CC(C)c1ccc(S(=O)(=O)/N=C2\C=C(NS(=O)(=O)c3ccccc3)C(=O)c3ccccc32)cc1,"inconclusive: 0.708 µM [activator, full curve, poor fit]"
22,CCCCOc1ccc(C(=O)NCC(=O)OCC(=O)c2c(N)n(C)c(=O)n(C)c2=O)cc1,"inconclusive: 39.8 µM [activator, single point]"
23,COc1cc(C2CC(c3ccccc3)=NN2c2ccccc2)ccc1OCC(=O)O (stereo unspecified),"inconclusive: 35.5 µM [activator, single point]"
24,N#Cc1c(-c2ccccc2)cc(-c2ccccc2)[nH]c1=O,active: 0.794 µM

row,Compound,Potency
1,Brc1c(C[n+]2ccccc2)nc2ccccn12,"inconclusive: 0.631 µM [activator, full curve, poor fit]"
2,N#CC(C#N)=C1C=CC=CN1/C(=C\c1ccccc1)C(=O)c1cccs1,"inconclusive: 39.8 µM [activator, partial curve]"
3,O=C(Cc1ccccc1F)Nc1ccc2c(c1)CCC2,inactive
4,CCCCNc1c(-c2ccc(OC)c(Sc3ccc(OC)cc3)c2)nc2cnccn12,"inconclusive: 20 µM [activator, partial curve]"
5,C=CCC(CC)C(=O)NC(=O)N1CCCc2ccccc21 (stereo unspecified),"inconclusive: 7.08 µM [activator, single point]"
6,COc1ccccc1S(=O)(=O)Nc1ccc(-c2nnc3n2CCCCC3)cc1,active: 3.55 µM
7,COc1ccc(CNC(=O)Cc2cccs2)cc1OC,"inconclusive: 44.7 µM [activator, partial curve, poor fit]"
8,Cc1nn(C(C)C(=O)c2cccc(Cl)c2)c(C)c1[N+](=O)[O-] (stereo unspecified),inactive
9,CC(C)Cc1cc(CN2CCC(CO)(Cc3ccccc3)CC2)[nH]n1,"inconclusive: 39.8 µM [activator, single point]"
10,CCc1ccc(NC(=O)CSc2nc3ccsc3c(=O)n2CCC(=O)O)cc1,"inconclusive: 12.6 µM [activator, partial curve]"
11,Cc1nc(SCc2ccc(Cl)c(Cl)c2)n[nH]1,inactive
12,Cc1nn(-c2ccccc2)c2nc(C(Cl)(Cl)Cl)[nH]c(=O)c12,"inconclusive: 3.16 µM [activator, full curve]"
13,Cc1ccc(Nc2ccc(C(N)=O)cc2[N+](=O)[O-])cc1C,active: 25.1 µM
14,CCOC(=O)C(C)Sc1nc2ccccc2c(=O)n1CC (stereo unspecified),"inconclusive: 39.8 µM [activator, single point]"
15,COc1cc(/C=C(/C(=O)c2cccs2)c2nc3ccccc3[nH]2)ccc1O,active: 25.1 µM
16,COc1cccc(Oc2coc3c(CN4CCOCC4)c(O)ccc3c2=O)c1,inactive
17,Cc1ccc(C2CC(c3ccccc3)=NN2c2ccccc2)o1 (stereo unspecified),active: 20 µM
18,Cc1cccn2c(=O)c3cc(C(=O)NCCc4ccccc4)c(=N)n(Cc4ccco4)c3nc12,"inconclusive: 25.1 µM [activator, partial curve]"
19,COc1nc(-c2ccccc2)cc(-c2ccc(OC)c(OC)c2)n1,"inconclusive: 39.8 µM [activator, single point]"
20,O=C1CC(Sc2nnc(-c3ccccc3O)o2)C(=O)N1c1ccccc1 (stereo unspecified),inactive
21,CN(C(=O)c1cc(C(=O)N(C)c2ccccc2)cc([N+](=O)[O-])c1)c1ccccc1,active: 39.8 µM
22,COc1ccc(CNC(=O)c2noc3c2CCCCC3)cc1,"inconclusive: 3.98 µM [activator, single point]"
23,CCNC(=S)N(Cc1cc2cccc(C)c2[nH]c1=O)C1CCCC1,"inconclusive: 7.94 µM [activator, full curve]"
